Literature values, collected in US10781467B2, “3-epimerase and polynucleotide encoding same” (priority 2016, dated 2020).

Details: relative to sucrose; cited from earlier work

SMILES | caloric energy, % of the energy of sucrose | sweetness, % of the sweetness of sucrose
O=C(CO)[C@H](O)[C@H](O)[C@H](O)CO [D-allulose, D-ribo-2-hexulose] | 0.3% | 70%
O=C(CO)[C@@H](O)[C@@H](O)[C@H](O)CO [D-tagatose] | – | 92%
